This list holds what a sample rich in hits left over. Records with an inconclusive call do not appear. Calls of active or inactive are those of the source. Calls follow the shape of the dose curve; as a rule, active = well fitted inhibition curve with a large enough effect; inconclusive = small, poorly fitted or top-dose-only effect; inactive = no such curve, though single readings can be large or run the other way.
assay: Primary qHTS assay for Inhibitors of ovarian cancer metastasis using an organotypic tumor microenvironment (TME) model.;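 also: plate controls were DMSO wells for no effect and tomatine positive control wells for full effect; nearly all actives have a fitted effect of over 65% in size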; conditions: SKOV3ip1-GFP adhesion/invasion on 3D omental model, fluorescence; at 45.8 µM (top of the series)
Source text: PI: Ernst Lengyel MD., Ph.D. Department of Obstetrics and Gynecology, Section of Gynecologic Oncology University of Chicago Medicine, Chicago, Illinois. The tumor microenvironment (TME) is a key determinant of metastatic efficiency. We performed a quantitative high-throughput screen (qHTS) of diverse medicinal chemistry tractable scaffolds (44,420 compounds) and pharmacologically active small molecules (386 compounds) using a layered organotypic, robust assay representing the ovarian cancer metastatic TME. This 3D model contains primary human mesothelial cells, fibroblasts, and extracellular matrix, to which fluorescently labeled ovarian cancer cells are added. Initially, 100 compounds inhibiting ovarian cancer adhesion/invasion to the 3D model in a dose-dependent manner were identified. […]
PROTOCOL TABLE (as described by Inglese J, Shamu CE and Guy RK. 2007) SEQUENCE No. (e.g., 1, 2, 3, etc.); […] […] 11; Detection; Fluorescence, excitation filter 488 nm, emission filter 509 nm. […] The number of GFP-labeled cells analyzed using a fluorescent cytometer TTP LabTech Acumen eX3 using 488 nm excitation filter and 509 nm emission filter. […] Yasgar A, Shinn P, Jadhav A, Auld DS, Michael S, Zheng W, Austin CP, Inglese J and Simeonov A, Compound Management for Quantitative High-Throughput Screening. […]

| SMILES | activity change, negative = inhibition |
| --- | --- |
| O=C(CCCCCCC(=O)Nc1ccccc1)NO | inactive: -8.03% |
| CCS(=O)(=O)N1CC(CC#N)(n2cc(-c3ncnc4[nH]ccc34)cn2)C1 | inactive: 34.6% |

— PubChem BioAssay AID1963576 (National Center for Advancing Translational Sciences (NCATS), 2024)
